Data taken from ChEMBL document CHEMBL3988442, “University of Dundee, Small-Polar-MMV Screening Library” (2021).

Mtb glucose medium: 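Growth of Mycobacterium tuberculosis over 3 days (7H9 medium with glucose and tyloxapol); the read-out is not stated. Concentration: 50 µM. The record gives no direction; compounds that gave an IC50 in retests scored well above the rest, so higher reads as more growth inhibition. About 69,000 compounds were tested under these conditions; 1.1% (about 760) showed 50% or more at least once.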
Mtb cholesterol medium: 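Whole-cell growth test on Mycobacterium tuberculosis, read after 4 days in a medium based on cholesterol and the lipid DPPC; the read-out is not stated. Tested at 50 µM. The record gives no direction; compounds that gave an IC50 in retests scored well above the rest, so higher reads as more growth inhibition. Size under these conditions: about 69,000 compounds, about 370 of them at 50% or above in at least one test.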

Values are the deposited “Percent Effect”, in %.
How 0% and 100% were set is not recorded. Most values in the screen are low, and negative values occur.
This is an unselected part of the compounds tested.
Two or more numbers in one place are separate tests of the same structure; such repeats can differ widely.

| compound | Mtb glucose medium | Mtb cholesterol medium |
|---|---|---|
| `O=C(O)C(F)(F)F.O=C1CCC2(CCN(Cc3nccs3)CC2)N1Cc1ccccc1` | 3.319% | -12.84% |
| `CCc1cc(=O)[nH]c(SCc2ccccn2)n1` | 11.54% | -11.92% |
| `CN1Cc2ccccc2CC1C(=O)N1CCN(CCS(C)(=O)=O)CC1` (stereo not given) | -29.94% | -25.4% |
| `CCn1ccnc1CN1CCC(N(C)Cc2ncc(C)o2)C1` (stereo not given) | -11.39% | -28.32% |
| `O=C(c1cnccn1)N1CCCC(Cn2cc(C3CC3)nn2)C1` (stereo not given) | -15.33% | -3.008% |
| `O=C(O)c1cc(S(=O)(=O)Nc2cccc3c2OCCO3)ccc1F` | -1.575% | -4.561% |
| `O=C(O)C(F)(F)F.[H][C@@]12OCCN(C(=O)N3CCCC3)[C@@]1([H])CC[C@@H]2OCc1cccnc1` | 16.47% & 20.18% | -5.85% |
| `Cn1cc(-c2cnc(N3CCOCC3)nc2)cc1C(=O)N1CCOCC1` | 10.28% | 3.052% |
| `CCN(Cc1cccc(Cl)c1)Cc1ncc(C(C)(C)C)o1` | 20.6% & -0.6352% | -2.632% |
| `CN(C)c1cnnc(N2CCN(C(=O)Cc3ccccc3)CC2)c1` | 3.227% & 1.714% | 1.696% |
| `NC(=O)CN(Cc1ncc(-c2ccccc2)o1)C1CCCC1` | -27.46% | 7.591% |
| `CN(C)C(=O)c1ccc(NCCNc2ccc3ccccc3n2)nc1` | -82.42% | -55.66% |
| `CCCn1ccc(C(=O)Nc2ccc3c(c2)C(C)(C)C(=O)N3C)n1` | 41.88% | 16.53% |
| `CCCNCc1ccc(-c2ccnc3[nH]ccc23)cc1` | 25.8% | 9.769% |
| `Cc1cc(=O)c2ccccc2n1CC1CCNC1` (stereo not given) | 29.24% | 14.36% |
| `CCc1nc(C(=O)N(CC)CC(=O)N(C)C)nn1-c1ccccc1Cl` | 6.972% | 6.779% |
| `Cc1c(C(=O)N2CCNC(=O)C2)sc2nc[nH]c(=O)c12` | -4.605% & 21.65% | -22.9% |
| `CCC(=O)N1CCCC1c1nccnc1Nc1nc(C)cc(C)n1` (stereo not given) | 13.34% | -6.804% |
| `CC(NS(C)(=O)=O)C(=O)N(C)Cc1csc(-c2cccs2)n1` (stereo not given) | 12.97% & 7.662% | 11.55% |
| `O=c1oc(-c2cccs2)nn1CC(O)c1ccccc1F` (stereo not given) | 7.486% | -9.744% & -21.96% |
| `Cn1cc(CC2CCN(C(=O)NCc3cn4ccsc4n3)C2)cn1` (stereo not given) | -10.4% & -1.492% | 8.109% |
| `Clc1ccc(C2(CNC3=NCCN3)CCCCC2)cc1.I` | 46.5% | 28.33% |
| `COC(=O)C(NC(=O)COC1CCCC1)c1cc(F)ccc1F` (stereo not given) | 29.72% | 11.05% |
| `CCC(CC)C(=O)N1CCC(c2nn(CCN)c3nccnc23)C1` (stereo not given) | 9.108% | -12.45% |
| `N#Cc1cn(C2CC2)c(=O)n(CC(O)c2ccc(OC(F)F)cc2)c1=O` (stereo not given) | -1.938% | 2.229% |
| `Cc1nc(C(C)(C)NCc2ncc(C(C)C)o2)sc1C` | 21.55% & 5.786% | 4.75% |
| `COC1CC2(CCN(Cc3nccn3C)CC2)C1.O=C(O)C(F)(F)F` | 1.357% & -14.7% | -18.81% |
| `COCCCNC(=O)CN(C)C(C)c1nc(C(C)C)no1` (stereo not given) | -7.269% | -4.353% |
| `Fc1cccc(Cl)c1Cn1ncnc1CSCCN1CCCC1` | 22.36% | 19.74% |
| `COCCn1ccc2cc(NC(=O)COC)ccc21` | -1.39% | 8.093% |
| `O=C(CCc1ccc2c(c1)OCO2)Nc1cccnc1-n1cncn1` | 23.42% | 0.3111% |
| `O=C(Cc1ccc2c(c1)CCO2)N1CCCC1Cn1cccn1` (stereo not given) | -6.477% | -3.203% |
| `CCOc1ccc(C(=O)NS(=O)(=O)c2cncc(Br)c2)cc1OC` | -6.272% | -38.85% |
| `[H][C@@]12C[C@@H](OC)C[C@]1([H])CN(C(=O)c1cccc3c1OCCO3)C2` | -22.64% | -6.654% & -10.65% |
| `COCc1noc(-c2ccc(N(C)Cc3ccc(C)o3)nc2)n1` | 25.52% | 55.63% & 40.27% |
| `Cc1cc(C)n(CC(=O)N2CCC(Nc3cccnn3)CC2)n1` | -12.45% | -31.91% |
| `[H][C@@]12CN(C(=O)c3ccc(F)cc3)C[C@]1([H])CN(c1ncccn1)C2` | -8.049% & -9.749% | -16.69% |
| `CC(NC(=O)NCc1ccccc1Cl)c1ccccn1` (stereo not given) | -3.3% | -12.92% |
| `Cc1ccc(NC2CCN(C(=O)COCC(F)(F)F)CC2)nn1` | -11.94% | -26.02% |
| `CCOC(=O)c1coc(N2CCN(Cc3cc(C)cc(C)c3)C(=O)C2)n1` | -12.86% & -7.01% | -2.112% |
| `CCN1CC(CN2CCOCC2)Oc2ncccc2C1=O` (stereo not given) | -23.64% | -29.05% |
| `CO[C@H]1CCN(C(=O)c2ccc3oc(C)cc3c2)C[C@@]12CCCO2` | 22.02% | 3.934% |
| `O=C(O)C(F)(F)F.[H][C@@]12CN(Cc3ccoc3)CCO[C@]1([H])CN(C(=O)c1sccc1C)C2` | -5.093% | -22.79% |
| `COc1ccccc1OCC(=O)NS(=O)(=O)c1ccc(Br)s1` | -0.2359% | 17.37% |
| `O=C(O)[C@@H]1CN(C(=O)CCC(F)(F)F)C[C@H]1c1ccncc1` | 5.268% | 0.8733% |
| `CO[C@@H]1CN(c2ccccc2)S(=O)(=O)[C@@]12CCNC2` | -12.02% | -29.87% |
| `CCN(C(=O)CSc1ccc(C(F)(F)F)cn1)C1CC1` | 3.313% & 7.319% | 30.8% |
| `CC(=O)N(Cc1noc(C)n1)C1CCN(Cc2c(C)noc2C)C1` (stereo not given) | -9.384% | 0.6179% |
| `C1CC(CN2CCCCC2C2OCCO2)C1` (stereo not given) | 24.05% | 11.65% |
| `[H][C@]12CN(c3ncccn3)C[C@@]1([H])S(=O)(=O)CC[C@@H]2C(=O)N(C)C` | -10.19% | -26.87% |
| `Cc1cc(C)n2c(CNCc3ccc(OC(F)F)cc3)cnc2n1` | -9.809% | 4.538% |
| `CS(=O)(=O)NCc1nnc2n1CCN(Cc1nccs1)C2` | -35.06% | -14.25% & -18.7% |
| `Cc1cn(-c2ccccc2)nc1NS(=O)(=O)c1ccc(C(=O)O)cc1` | 17.52% | 15.72% |
| `CN(Cc1cc2cc(F)ccc2[nH]1)c1cc(C2CCCNC2)ncn1` (stereo not given) | 33.69% | 17.91% |
| `Cc1csc(C2CCCCN2C(=O)c2c[nH]c(C)n2)n1` (stereo not given) | 14.75% | 15.09% |
| `O=C(O)C(F)(F)F.[H][C@@]12CCN(Cc3ccc(CC)o3)C[C@@]1([H])O[C@@H](c1nnc(C)[nH]1)C2` | 17.75% | 8.484% |

For reference, 6 entries once more:

| compound | Mtb glucose medium | Mtb cholesterol medium |
|---|---|---|
| `CCOC(=O)c1coc(N2CCN(Cc3cc(C)cc(C)c3)C(=O)C2)n1` | -12.86% & -7.01% | -2.112% |
| `CCC(CC)C(=O)N1CCC(c2nn(CCN)c3nccnc23)C1` (stereo not given) | 9.108% | -12.45% |
| `O=C(O)C(F)(F)F.[H][C@@]12OCCN(C(=O)N3CCCC3)[C@@]1([H])CC[C@@H]2OCc1cccnc1` | 16.47% & 20.18% | -5.85% |
| `O=C(Cc1ccc2c(c1)CCO2)N1CCCC1Cn1cccn1` (stereo not given) | -6.477% | -3.203% |
| `O=C(O)C(F)(F)F.O=C1CCC2(CCN(Cc3nccs3)CC2)N1Cc1ccccc1` | 3.319% | -12.84% |
| `CCN1CC(CN2CCOCC2)Oc2ncccc2C1=O` (stereo not given) | -23.64% | -29.05% |